Data set [1] is described as follows: Drug toxicity test: blood biochemistry in nude mice. It is filed as in vivo. As to conditions: serum of nude mice. As to the method:
Blood samples from each mouse were kept at room temperature for 3 h and centrifuged at 8000 rpm for 15 min to produce serum. The samples were then placed on the blood routine detector for biochemical analysis.

For the next data set, the system named is PC3 cells. In words: CCK-8 cell viability assay, PC3. It is filed as cell-based. The settings on record: Homo sapiens, PC-3, Figure 2B and text. As to the method: Human cancer cell lines (PC3, DU145, A549, H1299, MDA-MB-231, HepG2, PANC-1, MIA PaCa-2, HT-29, HCT116, and HeLa) were obtained from the Cell Resource Center, Peking Union Medical College (National Infrastructure of Cell Line Resource, NSTI). These cell lines were cultured according to NSTI culture guidelines and cultured in RPMI 1640 medium (Biological Industries, Israel) supplemented with 10% heat-inactivated fetal bovine serum (FBS; BI; Israel), penicillin/streptomycin (P/S; 100 IU/ml; Gibco, 10378016) in an incubator at 37 °C and 5% CO2.
Cell cytotoxicity assays were performed in 96-well plates (NEST) to determine the growth kinetics of SeSA-DCA-treated cells using CCK-8 reagent (Shandong Sparkjade Biotechnology Co., Ltd., CT0001-B). Cells (5000 cells/well) were treated with DMSO or different drugs. Each treatment was performed in five replicates. To assess cell growth, 10 μL of CCK-8 reagent was introduced to every well and allowed to incubate for 4 h. Following that, the absorbance value for each well was measured at 450 nm. Every experiment was duplicated no less than thrice.

pIC50: −log10 of the molar value.

In turn, `O=C(CCCCCCC(=O)Nc1ccccc1)NO` [SAHA, suberoylanilide hydroxamic acid] registered an A/G in data set [1] of 0.4 ± 0.05. This compound showed a pIC50 in the data set with PC3 cells of less than 5.74.

Values taken from paper PMC11209715, “A novel selenium analog of HDACi-based twin drug induces apoptosis and cell cycle arrest via CDC25A to improve prostate cancer therapy” (Theranostics, 2024).
